In all, about 320,000 compounds went through this assay and about 22,000 (6.9%) were called active. This list was built around the results that the source calls inconclusive (neither active nor inactive); the mix of calls is not that of the screen. Calls come from the whole dose curve; as a rule, active = well fitted inhibition curve with a large enough effect; inconclusive = small, poorly fitted or top-dose-only effect, or another doubt; inactive = no such curve, though single readings can be large or run the other way. Potencies of inconclusive entries are doubtful fits and often do not repeat.
Assay: Primary qHTS for delayed death inhibitors of the malarial parasite plastid, 96 hour incubation
Details: P. falciparum luciferase reporter growth; series mostly up to 28.7 µM
How it was run: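 Infected RBCs, 2% Hct / 0.05% parasitemia final; luciferase-reporter P. falciparum; cpd 96 h, 37 C, 5% CO2; luciferase detection reagent; luminescence.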
With `S=C(Nc1cccnc1)N1CCN(c2ccccc2Cl)CC1` the Potency was “inactive”. For `CCOC(=O)C(=CNc1ccc2c(c1)CCN2C(C)=O)C(=O)OCC`, the Potency was inconclusive: 14.7 µM [inhibitor, partial curve, poor fit]. For `CCOc1ncccc1C(=O)Nc1cc(S(=O)(=O)N2CCCCCC2)ccc1OC`, the Potency was “inactive”. In the case of `Nc1nc(SCc2cccc(Br)c2)n[nH]1`, the Potency is reported as inconclusive: 5.86 µM [inhibitor, partial curve, poor fit]. In the case of `CCCN1CCc2c(sc3nc(SC)n(-c4ccccc4)c(=O)c23)C1`, the Potency is reported as active: 0.738 µM. For `O=C(COC(=O)Cc1ccccc1)NC12CC3CC(CC(C3)C1)C2`, the Potency was “inactive”. For `O=C(CCl)N1CCN(S(=O)(=O)c2ccc3c(c2)CCC3)CC1`, the Potency was inconclusive: 1.65 µM [inhibitor, full curve, poor fit]. In the case of `CN(CC(=O)Nc1ccc(Cl)c(Cl)c1)C1CCCCC1`, the Potency is reported as “inactive”. In the case of `CC1(C)Cc2nc(N3CCCC3)c(C#N)cc2CO1`, the Potency is reported as inconclusive: 14.7 µM [inhibitor, partial curve, poor fit]. For `COC(=O)c1ccc(N2CCCCC2)c(NC(=O)c2ccco2)c1`, the Potency was “inactive”. With `CC(C)(C)c1ccc(C(=O)Nc2cccc3c(=O)[nH][nH]c(=O)c23)cc1` the Potency was inconclusive: 18.5 µM [inhibitor, single point]. For `CCOC(=O)c1ccc(NC(=O)Nc2ccc(OC)c(OC)c2)cc1`, the Potency was “inactive”. For `O=C(NC1CCCCC1)c1ccc(CS(=O)Cc2ccc(Cl)cc2)o1` (stereo unspecified), the Potency was “inactive”. For `CCOC(=O)c1ccc(NCc2ccc3c(c2)OCO3)cc1`, the Potency was “inactive”. With `COc1ccc(C(=O)/C=C/C(=O)N(Cc2ccccc2)C(C(=O)NC2CCCCC2)c2ccncc2)c(O)c1` (stereo unspecified) the Potency was “inactive”. In the case of `COc1ccc(C(=O)CSc2nnc(CNC(=O)c3ccco3)n2C)cc1`, the Potency is reported as “inactive”. In the case of `CC(C)OC(=O)CC(=O)CSc1nc(-c2ccc(F)cc2)cc(-c2ccccc2)c1C#N`, the Potency is reported as inconclusive: 18.5 µM [inhibitor, single point]. For `Cc1cc(NC(=O)c2cc3n(n2)C(C(F)(F)F)CC(c2ccco2)N3)n(-c2ccccc2)n1` (stereo unspecified), the Potency was inconclusive: 1.31 µM [inhibitor, partial curve, poor fit]. In the case of `CS(=O)(=O)c1ccc(Cl)c(NC(=O)c2ccc3ccccc3c2)c1`, the Potency is reported as inconclusive: 0.828 µM [inhibitor, partial curve, poor fit]. In the case of `COCc1cc(C)nc(N/N=C/c2ccc(-c3ccc(Cl)cc3[N+](=O)[O-])o2)c1C#N`, the Potency is reported as “inactive”. With `COc1cc(/C=C2\N=C(c3ccccc3)NNC2=O)cc(OC)c1OC` the Potency was inconclusive: 13.1 µM [inhibitor, partial curve]. With `CCC(C)(C)NC(=O)Cc1ccc(Cl)cc1` the Potency was “inactive”. For `COc1ccc(CNC(=O)c2cc3ccccc3oc2=O)cc1`, the Potency was “inactive”. In the case of `CCOC(=O)c1ccc(-c2ccc(/C=N/NC(=O)CN(c3ccccc3Cl)S(C)(=O)=O)o2)cc1`, the Potency is reported as inconclusive: 2.08 µM [inhibitor, full curve, poor fit]. In the case of `Cc1ccc(N2C(=O)CS/C2=N\C(=S)Nc2ccccc2)cc1`, the Potency is reported as active: 4.15 µM. In the case of `COc1c(OC)c(O)c2c(=O)c(O)c(-c3ccccc3)oc2c1OC`, the Potency is reported as “inactive”. With `O=C1c2cccnc2C(Nc2ccccc2)N1Cc1ccco1` (stereo unspecified) the Potency was inconclusive: 10.4 µM [inhibitor, partial curve, poor fit]. For `Cc1cc(S(=O)(=O)Nc2ccc(C(=O)NCC(c3ccco3)N(C)C)cc2)ccc1F` (stereo unspecified), the Potency was “inactive”. In the case of `N#CC(=Cc1ccc(O)cc1)C(N)=C(C#N)C#N`, the Potency is reported as “inactive”. For `CC(C)[C@H](NC(=O)c1ccccc1)C(=O)OCC(=O)N1CC2(C)CC1CC(C)(C)C2` (stereo partly specified), the Potency was inconclusive: 13.1 µM [inhibitor, partial curve, poor fit]. For `Cc1cc(SCC(=O)c2cccs2)nc2c(C)cccc12`, the Potency was “inactive”. For `CCc1ccc(-n2c(=S)sc3c(=O)n(-c4ccccc4OC)c(=S)[nH]c32)cc1`, the Potency was inconclusive: 13.1 µM [inhibitor, single point]. For `COc1ccc(C2CC(C(F)(F)F)n3nc(C(=O)NCCCn4ccnc4)cc3N2)cc1OC` (stereo unspecified), the Potency was inconclusive: 18.5 µM [inhibitor, single point]. With `Cn1cncc1C#Cc1ccc2cc(CCO)oc(=O)c2c1` the Potency was inconclusive: 3.29 µM [inhibitor, single point]. With `OCCC1CN(Cc2nc3c(s2)CCCC3)CCN1CCc1ccccc1` (stereo unspecified) the Potency was inconclusive: 11.7 µM [inhibitor, single point]. With `COc1cccc(-c2nnc(SCC(=O)N3CC(C)CC(C)C3)o2)c1` (stereo unspecified) the Potency was inconclusive: 18.5 µM [inhibitor, single point]. For `Cc1cc(OC(C)C(=O)NCc2ccccn2)c2c(C)cc(=O)oc2c1` (stereo unspecified), the Potency was active: 3.7 µM. With `CCN(CC)C(=O)c1ccc2c(c1)nnn2C` the Potency was “inactive”. For `COc1cc2cc(C(=O)N3CCc4ccccc4C3)[nH]c2cc1OC`, the Potency was inconclusive: 13.1 µM [inhibitor, single point]. With `C=C(C)CC1N(c2cccc(OC)c2)C(=O)C2C(C(=O)O)C3C=CC21O3` (stereo unspecified) the Potency was inconclusive: 9.28 µM [inhibitor, partial curve, poor fit]. With `Cc1cc(C)cc(NC(=O)C(c2ccccc2)N2CCN(CC(=O)NC3CC3)CC2)c1` (stereo unspecified) the Potency was active: 9.28 µM. In the case of `CCOC(=O)c1sc2ccc(S(=O)(=O)N3CCOCC3)cc2c1N`, the Potency is reported as “inactive”. With `COc1ccccc1N1CCN(C(=O)C2CCN(S(=O)(=O)c3ccc(F)cc3)CC2)CC1` the Potency was “inactive”. With `C/C(=N\NC(=S)NCc1ccccc1)c1ccc(C(C)(C)C)cc1` the Potency was inconclusive: 2.08 µM [inhibitor, partial curve]. In the case of `O=C(NC(Cc1c[nH]c2ccccc12)C(=O)Nc1ccc(F)c([N+](=O)[O-])c1)c1cccs1` (stereo unspecified), the Potency is reported as inconclusive: 18.5 µM [inhibitor, single point]. In the case of `O=C(c1ccc(NC(=O)C2(c3ccccc3)CCCC2)cc1)N1CCOCC1`, the Potency is reported as “inactive”. In the case of `CC(=O)O[C@H]1CC[C@@]2(C)[C@@H](CC[C@H]3[C@@H]4CC[C@H](C(C)O)[C@@]4(C)CC(=O)[C@@H]32)C1` (stereo partly specified), the Potency is reported as inconclusive: 10.4 µM [inhibitor, partial curve, poor fit]. In the case of `CCNC(=O)C1CC(=O)N(CCCc2ccccc2)C(=Nc2ccccc2)S1` (stereo unspecified), the Potency is reported as inconclusive: 18.5 µM [inhibitor, single point]. For `COc1cc(C(=O)OCCc2cc3ccccc3c(=O)o2)cc(OC)c1OC`, the Potency was inconclusive: 18.5 µM [inhibitor, single point]. In the case of `COc1cccc(-c2c(C(=O)N/N=C/c3cccs3)nnn2-c2nonc2N)c1`, the Potency is reported as inconclusive: 3.7 µM [inhibitor, partial curve, poor fit]. With `O=C(OCC(=O)N1CCN(C(=O)c2ccco2)CC1)c1ccc(Cl)c(Cl)c1` the Potency was inconclusive: 18.5 µM [inhibitor, single point]. With `COC(=O)CNC(=O)/C=C/c1cc(Br)ccc1OC` the Potency was inconclusive: 18.5 µM [inhibitor, single point]. With `CCn1c(CNC(=O)c2ccccc2Br)nnc1SCC(=O)Nc1nncs1` the Potency was inconclusive: 10.4 µM [inhibitor, single point]. With `CCN1C(=Nc2ccc(Cl)cc2)SC/C1=C\C(=O)OC` the Potency was inconclusive: 4.15 µM [inhibitor, single point]. In the case of `COc1ccc(CN2CCCC(C(=O)c3ccc(Cl)cc3)C2)cc1Cn1cccn1` (stereo unspecified), the Potency is reported as inconclusive: 18.5 µM [inhibitor, single point]. For `CN1CC(c2ccccn2)C2(SC(=S)N(Cc3ccccc3)C2=O)C12C(=O)Nc1ccccc12` (stereo unspecified), the Potency was inconclusive: 9.28 µM [inhibitor, partial curve, poor fit]. In the case of `COc1ccc(-c2nc(CCl)cs2)cc1OC`, the Potency is reported as inconclusive: 10.4 µM [inhibitor, partial curve, poor fit]. With `Cn1c2ccccc2c2cc(C(=O)N3CCOCC3)sc21` the Potency was “inactive”. For `COc1ccc(C(=O)NC(C)C2CC3CCC2C3)cc1` (stereo unspecified), the Potency was inconclusive: 18.5 µM [inhibitor, single point]. With `CC(=O)Nc1ccc(C(=O)Nc2nc(-c3ccccn3)cs2)cc1` the Potency was inconclusive: 11.7 µM [inhibitor, single point]. With `Cc1cc(C(=O)CN2CCCC2)c(C)n1-c1ccc(F)cc1` the Potency was inconclusive: 11.7 µM [inhibitor, partial curve, poor fit]. In the case of `O=C1N=C(N2CCOCC2)S/C1=C/c1ccc(-c2ccccc2Cl)o1`, the Potency is reported as inconclusive: 16.5 µM [inhibitor, partial curve, poor fit]. For `CC1CCCCN1C(=O)c1ccccc1NC(=O)c1ccco1` (stereo unspecified), the Potency was active: 10.4 µM. In the case of `Nc1c(C(=O)C2CC2)sc2nc(-c3ccccc3)cc(C(F)(F)F)c12`, the Potency is reported as inconclusive: 18.5 µM [inhibitor, single point]. In the case of `C=CCN(c1ccccc1)S(=O)(=O)c1ccc(Cl)c(C(=O)OCC(=O)NCCCN2CCCC2=O)c1`, the Potency is reported as “inactive”. With `CC/C(=N\Nc1cccc2ccccc12)c1c(O)[nH]c(=O)[nH]c1=O` the Potency was inconclusive: 18.5 µM [inhibitor, single point]. With `CCN1C(=O)[C@H]2[C@@H](c3ccc(C)cc3)N3C(=O)N(c4ccc(OC)cc4)C(=O)[C@@]3(C)[C@H]2C1=O` the Potency was inconclusive: 18.5 µM [inhibitor, single point]. With `COc1cc(CNc2ccc3[nH]c(=O)[nH]c3c2)cc(Br)c1OCc1ccccc1F` the Potency was “inactive”. In the case of `COc1ccc(/C=C/C(=O)c2ccncc2)c2ccccc12`, the Potency is reported as “inactive”. With `Cc1cc(NC(=O)CSc2nc3ccccc3c(=O)n2C(C)c2ccccc2)no1` (stereo unspecified) the Potency was active: 11.7 µM. With `O=C(Nc1cc(S(=O)(=O)N2CCCCC2)ccc1N1CCCCC1)C1CC1` the Potency was inconclusive: 11.7 µM [inhibitor, partial curve, poor fit].

From PubChem BioAssay AID504834 (National Center for Advancing Translational Sciences (NCATS), 2011)
Potency is the fitted concentration of half-maximal effect.
